The list shows a part of the results. For some of these results: The exact form of the protein is not confirmed.

The chains behind the UniProt entries cited, without tags or fusion partners. Where a name states a change or a piece, a line headed by the entry shows the natural chain unless it says otherwise.
UniProt Q8NEY1: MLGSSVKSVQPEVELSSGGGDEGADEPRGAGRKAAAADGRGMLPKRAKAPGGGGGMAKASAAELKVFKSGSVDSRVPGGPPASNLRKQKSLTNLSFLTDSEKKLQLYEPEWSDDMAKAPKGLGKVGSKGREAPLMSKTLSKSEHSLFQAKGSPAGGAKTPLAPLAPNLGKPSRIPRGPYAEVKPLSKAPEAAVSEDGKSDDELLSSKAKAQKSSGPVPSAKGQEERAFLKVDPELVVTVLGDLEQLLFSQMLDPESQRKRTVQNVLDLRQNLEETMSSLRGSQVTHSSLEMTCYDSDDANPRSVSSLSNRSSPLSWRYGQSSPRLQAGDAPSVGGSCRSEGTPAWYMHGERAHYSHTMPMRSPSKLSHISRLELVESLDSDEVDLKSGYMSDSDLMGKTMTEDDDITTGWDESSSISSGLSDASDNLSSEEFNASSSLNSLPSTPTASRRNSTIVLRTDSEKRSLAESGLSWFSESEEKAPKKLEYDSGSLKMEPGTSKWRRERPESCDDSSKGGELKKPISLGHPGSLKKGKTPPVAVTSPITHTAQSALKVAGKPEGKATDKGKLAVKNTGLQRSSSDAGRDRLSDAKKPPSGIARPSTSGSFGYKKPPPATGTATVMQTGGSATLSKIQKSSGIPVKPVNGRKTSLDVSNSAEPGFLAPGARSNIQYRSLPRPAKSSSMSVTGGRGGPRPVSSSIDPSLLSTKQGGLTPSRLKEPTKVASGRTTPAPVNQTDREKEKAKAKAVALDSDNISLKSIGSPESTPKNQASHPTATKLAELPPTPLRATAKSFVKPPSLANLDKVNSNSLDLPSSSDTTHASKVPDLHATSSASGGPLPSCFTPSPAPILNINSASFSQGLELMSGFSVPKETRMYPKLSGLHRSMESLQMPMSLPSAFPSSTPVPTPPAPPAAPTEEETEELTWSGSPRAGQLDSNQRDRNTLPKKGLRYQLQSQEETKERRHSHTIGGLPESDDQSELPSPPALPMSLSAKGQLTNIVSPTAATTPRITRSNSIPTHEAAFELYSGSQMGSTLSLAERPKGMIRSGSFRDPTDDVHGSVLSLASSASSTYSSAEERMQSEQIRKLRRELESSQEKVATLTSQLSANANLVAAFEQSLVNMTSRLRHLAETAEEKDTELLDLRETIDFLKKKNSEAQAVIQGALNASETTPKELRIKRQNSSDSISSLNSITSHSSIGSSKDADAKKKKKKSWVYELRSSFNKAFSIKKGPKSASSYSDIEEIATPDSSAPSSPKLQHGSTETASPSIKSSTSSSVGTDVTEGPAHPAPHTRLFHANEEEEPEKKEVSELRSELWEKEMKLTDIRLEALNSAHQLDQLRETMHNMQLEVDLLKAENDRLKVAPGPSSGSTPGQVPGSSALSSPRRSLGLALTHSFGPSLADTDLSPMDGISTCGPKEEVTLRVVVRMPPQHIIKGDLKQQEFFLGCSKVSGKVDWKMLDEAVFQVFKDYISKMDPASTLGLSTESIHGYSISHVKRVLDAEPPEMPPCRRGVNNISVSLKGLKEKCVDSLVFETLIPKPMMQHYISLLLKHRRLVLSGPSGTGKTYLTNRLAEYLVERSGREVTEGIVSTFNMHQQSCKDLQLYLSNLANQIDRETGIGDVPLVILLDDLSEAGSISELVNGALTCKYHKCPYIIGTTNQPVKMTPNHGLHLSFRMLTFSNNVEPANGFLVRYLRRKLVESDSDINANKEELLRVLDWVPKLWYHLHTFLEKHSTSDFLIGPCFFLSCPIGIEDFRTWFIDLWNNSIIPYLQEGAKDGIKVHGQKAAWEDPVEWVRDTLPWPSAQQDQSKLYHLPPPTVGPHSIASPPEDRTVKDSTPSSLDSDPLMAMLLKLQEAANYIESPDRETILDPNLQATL

Drawing on publication PMC5996148, this text covers binding signal for one sequence.

Experiment in all cases: protein microarray (ProtoArray v5.0), streptavidin-Alexa Fluor 647
Common to all, as to details: 3'-biotin; 20 mM Tris (pH 7.5), 5 mM MgCl2, 100 mM KCl, 0.1% Tween-20, A/T-rich and random oligonucleotide blockers; temperature not stated; high values mean tight binding

Assay [1] has as its system NADSYN1 (human).
In assay [2] the test system is NAGK (human).
Assay [3] deals with NAP1L2 (human).
Assay [4] deals with NAP1L5 (human).
The subject of assay [5] is NAPG (human).
The subject of assay [6] is NAPRT1 (human).
Assay [7] concerns NARS2 (human).
Assay [8] concerns NASP (human).
The target of assay [9] is NAV1 (UniProt Q8NEY1).
The subject of assay [10] is NBPF1 (human).

Consider “GGGAGGCTGAGGCAGG [G4-1 biotinylated (PQS2)]”, for which the binding signal in assay [1] was -0.287 z-score; in assay [2] it was -0.338 z-score; in [3], -0.326 z-score; in [4], -0.291 z-score; in assay [5] it was -0.341 z-score; in assay [6], -0.354 z-score. Further, the binding signal was -0.27 z-score in [7], -0.347 z-score in [8], -0.352 z-score in assay [9] and -0.354 z-score in [10].
